The text below walks through data of article PMC6465354.

By UniProt entry, the sequences of proteins in these tests, tags left out. Where a name states a change or a piece, a line headed by the entry shows the natural chain unless it says otherwise.
UniProt Q63372: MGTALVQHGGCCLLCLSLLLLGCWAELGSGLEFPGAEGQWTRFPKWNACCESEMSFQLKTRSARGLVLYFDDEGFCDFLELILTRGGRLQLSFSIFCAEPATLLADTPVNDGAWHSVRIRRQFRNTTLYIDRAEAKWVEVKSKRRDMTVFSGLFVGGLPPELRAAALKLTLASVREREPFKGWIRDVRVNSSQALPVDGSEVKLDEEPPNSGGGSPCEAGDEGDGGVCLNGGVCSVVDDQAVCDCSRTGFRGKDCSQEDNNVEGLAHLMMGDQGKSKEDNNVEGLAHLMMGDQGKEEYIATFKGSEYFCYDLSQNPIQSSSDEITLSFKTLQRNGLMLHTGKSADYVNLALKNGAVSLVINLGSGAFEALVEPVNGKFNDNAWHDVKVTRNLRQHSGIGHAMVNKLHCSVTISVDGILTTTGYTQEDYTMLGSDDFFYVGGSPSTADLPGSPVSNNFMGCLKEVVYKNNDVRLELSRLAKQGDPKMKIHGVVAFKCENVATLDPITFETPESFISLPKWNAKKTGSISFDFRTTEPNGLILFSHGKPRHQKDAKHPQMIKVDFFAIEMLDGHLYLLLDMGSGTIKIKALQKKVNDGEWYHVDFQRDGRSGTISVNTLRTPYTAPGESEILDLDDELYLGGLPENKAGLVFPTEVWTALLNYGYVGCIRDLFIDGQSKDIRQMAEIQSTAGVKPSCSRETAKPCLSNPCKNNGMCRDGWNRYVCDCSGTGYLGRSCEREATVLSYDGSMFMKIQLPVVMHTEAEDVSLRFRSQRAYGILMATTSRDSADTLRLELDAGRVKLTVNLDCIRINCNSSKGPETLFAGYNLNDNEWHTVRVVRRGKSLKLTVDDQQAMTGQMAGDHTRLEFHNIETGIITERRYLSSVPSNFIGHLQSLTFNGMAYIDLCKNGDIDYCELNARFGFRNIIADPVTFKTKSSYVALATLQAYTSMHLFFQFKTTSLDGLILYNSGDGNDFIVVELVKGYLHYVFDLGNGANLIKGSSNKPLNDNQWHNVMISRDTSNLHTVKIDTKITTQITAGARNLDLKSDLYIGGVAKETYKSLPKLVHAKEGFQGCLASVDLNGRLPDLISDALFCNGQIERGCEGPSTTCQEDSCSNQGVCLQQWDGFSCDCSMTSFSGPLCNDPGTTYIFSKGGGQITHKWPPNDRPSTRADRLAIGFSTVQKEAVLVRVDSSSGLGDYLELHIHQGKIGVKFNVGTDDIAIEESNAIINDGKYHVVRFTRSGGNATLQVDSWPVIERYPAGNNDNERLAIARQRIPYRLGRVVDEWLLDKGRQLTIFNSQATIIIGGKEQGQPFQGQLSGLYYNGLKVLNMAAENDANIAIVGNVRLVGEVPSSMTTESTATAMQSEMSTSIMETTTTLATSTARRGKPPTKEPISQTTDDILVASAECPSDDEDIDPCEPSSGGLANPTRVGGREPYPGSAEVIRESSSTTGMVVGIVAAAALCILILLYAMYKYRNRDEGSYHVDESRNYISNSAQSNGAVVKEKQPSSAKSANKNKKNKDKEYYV

Where a chain is given by its changes, count along the chain named. In names and notes the source's numbering stands. These are yes or no findings as the source states them, for the method shown. In cells and extracts the contact can be indirect. A result given as binding can be weak or reduced; the word gives no strength. Where a sequence is shown, tags or fusion partners need not be part of it.

The target of the assay is GST-Nrxn1α fusion protein (cytosolic domain of neurexin-1α) (UniProt Q63372). Put plainly: pull-down; GST-Nrxn1α cytosolic domain immobilized on glutathione sepharose beads; HEK293T lysates with GFP-tagged Mint2 in 50 mM Tris-HCl pH 7.2, 1 mM EDTA, 150 mM NaCl, 1% NP-40; 2 h at 4 °C; Western blot, quantified as percent of Mint2 WT; only the target purified. A general note: Immunoblotting shows a protein as a band on a membrane.

B1: GFP-tagged Mint2 wild type (rat) (protein, UniProt O35431 1-750)
chain: MAHRKRQSTASSMLDHRARPGPIPHDQEPENEDTELPLESYVPTGLELGTLRPDSPTPEEQECHNHSPDGDSSSDYVNNTSEEEDYDEGLPEEEEGVTYYIRYCPEDDSYLEGMDCNGEEYLAHGAHPVDTDECQEAVEDWTDSVGPHTHSHGAENSQEYPDSHLPIPEDDPTVLEVHDQEEDGHYCPSKESYQDYYPPETNGNTGGASPYRMRRGDGDLEEQEEDIDQIVAEIKMSLSMTSITSASEASPEHMPELDPGDSTEACSPSDTGRGPSRQEARPKSLNLPPEVKHSGDPQRGLKTKTRTPEERPKWPQEQVCNGLEQPRKQQRSDLNGPTDNNNIPETKKVASFPSFVAVPGPCEPEDLIDGIIFAANYLGSTQLLSERNPSKNIRMMQAQEAVSRVKRMQKAAKIKKKANSEGDAQTLTEVDLFISTQRIKVLNADTQETMMDHALRTISYIADIGNIVVLMARRRMPRSASQDCIETTPGAQEGKKQYKMICHVFESEDAQLIAQSIGQAFSVAYQEFLRANGINPEDLSQKEYSDIINTQEMYNDDLIHFSNSENCKELQLEKHKGEILGVVVVESGWGSILPTVILANMMNGGPAARSGKLSIGDQIMSINGTSLVGLPLATCQGIIKGLKNQTQVKLNIVSCPPVTTVLIKRPDLKYQLGFSVQNGIICSLMRGGIAERGGVRVGHRIIEINGQSVVATAHEKIVQALSNSVGEIHMKTMPAAMFRLLTGQETPLYI
For B1, the binding result is given as “binds”.

B2: GFP-tagged Mint2 N723S (rat) (protein, UniProt O35431 1-750)
chain: B1 chain with N723S
Take B2: the binding entry is listed as “binds”.
